Source: paper PMC8362126, “Proteolysis Targeting Chimera (PROTAC) for Macrophage Migration Inhibitory Factor (MIF) Has Anti‐Proliferative Activity in Lung Cancer Cells” (Angewandte Chemie (International Ed. in English), 2021)
The source holds more than one record for some entries. The list is limited to them. The source may hold further records. Values given together differ for a reason that is not stated; they may come from other doses, times, organisms or constructs than stated.

By UniProt entry, the sequences of proteins in these tests, tags left out. Residues count along the entry.
UniProt P14174, 2-115 limits assumed: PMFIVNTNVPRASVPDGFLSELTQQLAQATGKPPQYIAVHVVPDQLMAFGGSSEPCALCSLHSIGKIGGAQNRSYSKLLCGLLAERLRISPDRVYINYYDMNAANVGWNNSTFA

Biological target: MIF (Homo sapiens, UniProt P14174)
Assay: MIF degradation in A549 cells, cell lysate-based ELISA
Settings: 12 h, vs DMSO, mean±SD n=3
Protocol: In addition, A549 cells have been successfully used for assessing activity of cereblon ligand‐based PROTACs previously.[42] Therefore, A549 is a suitable cell line for evaluating the effect of our putative MIF‐directed PROTACs MD1 to MD12 on MIF protein levels. The reduction in MIF levels were monitored in A549 cells that were treated with two different PROTAC concentrations (20 and 2 μM) for 12 h in order to estimate the dose dependency, which is important for PROTACs because of the Hook effect.[35] The MIF levels in cell lysates were analyzed using an enzyme‐linked immunosorbent assay (ELISA).
S3. ELISA screening of MIF protein level on MIF-directed PROTACs
Cell culture. Human A549 lung cancer cells (ATCCCCL-185) or HEK293 kidney […]
containing 10% (v/v) fetal bovine serum (FBS), 100 U/mL penicillin/streptomycin […]
ELISA. 7×10^5 A549 cells per well were plated in 6-well plates. The next day, cells were treated with a solution of compounds or the vehicle for 12 h. Subsequently, the culture medium was removed and cells were washed twice with cold PBS and collected after trypsin (0.5 mL) degestion. […] The total protein concentration was determined with PierceTM BCA protein assay kit ( ThermoFisher , #23225). […] The relative MIF levels from 1µg total protein were determined by ELISA with the human MIF DuoSet ELISA kit according to the instructions of the manufacturer (R&D systems, #DY289). […]

O=C1CCC(N2C(=O)c3cccc(NCc4cn(CCC(=O)Nc5ccc(N6Cc7ccc(O)cc7OC6=O)cc5)nn4)c3C2=O)C(=O)N1 (stereo not shown) [MD10]
degradation (%) 20 µM: 61±14% and more than 50%
